Assay results from US20020155563A1.
These are yes or no findings as the source states them, for the method shown. For part of these data: Binding seen in cells or lysates may run through a third protein. Some binding calls cover weakened binding; strength is not graded here. Sequences can lack the tags named with a protein.

Protein sequences, listed by entry. Tags and fused reporters are not part of them. Lines headed by an entry give the natural chain unless they say otherwise; changes in a name come on top.
UniProt P62993: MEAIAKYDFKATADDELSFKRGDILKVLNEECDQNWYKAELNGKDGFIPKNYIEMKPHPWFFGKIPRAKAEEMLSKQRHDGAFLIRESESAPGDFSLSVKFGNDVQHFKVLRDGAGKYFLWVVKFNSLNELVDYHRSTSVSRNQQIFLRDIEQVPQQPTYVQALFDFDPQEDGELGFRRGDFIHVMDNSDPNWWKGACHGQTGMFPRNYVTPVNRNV

What was measured:
[1] = biological target: T1, His-MIST-PR (poly-histidine tagged MIST proline-rich domain, residues 160-320) (human) (UniProt Q7Z7G1); test: pull-down from Jurkat lysates on Talon beads, anti-Grb2 immunoblot
T1 sequence: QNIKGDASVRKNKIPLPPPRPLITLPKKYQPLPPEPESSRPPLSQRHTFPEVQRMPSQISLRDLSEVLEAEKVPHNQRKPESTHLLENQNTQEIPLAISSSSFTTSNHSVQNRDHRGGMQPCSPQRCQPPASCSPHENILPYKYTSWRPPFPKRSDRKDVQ

[2] = biological target: T2, His-MIST-fl (poly-histidine tagged MIST full length, residues 1-443) (human) (UniProt Q7Z7G1); test: as above
T2 sequence: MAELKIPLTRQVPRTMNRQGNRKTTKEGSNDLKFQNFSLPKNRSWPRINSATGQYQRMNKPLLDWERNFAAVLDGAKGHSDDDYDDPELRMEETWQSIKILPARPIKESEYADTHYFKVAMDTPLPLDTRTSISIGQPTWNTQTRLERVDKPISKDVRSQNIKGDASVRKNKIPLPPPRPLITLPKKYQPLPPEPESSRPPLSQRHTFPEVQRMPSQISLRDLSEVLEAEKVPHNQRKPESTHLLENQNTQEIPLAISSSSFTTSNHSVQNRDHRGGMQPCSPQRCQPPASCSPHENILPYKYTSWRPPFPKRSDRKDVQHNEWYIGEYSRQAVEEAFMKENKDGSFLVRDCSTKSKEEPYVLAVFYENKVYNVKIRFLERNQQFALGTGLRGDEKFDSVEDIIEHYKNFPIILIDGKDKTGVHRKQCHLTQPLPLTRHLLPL

[3] = biological target: T1, His-MIST-PR (poly-histidine tagged MIST proline-rich domain, residues 160-320) (human); test: ELISA, His-MIST proteins coated at 4 µg/ml, GST fusion detected with anti-GST antiserum

Row | Substance | binding [1] | binding [2] | binding [3]
1 | Grb2 (adapter protein, from Jurkat T cell lysates) (from UniProt P62993 1-217) | binds | binds | –
2 | recombinant N-terminal SH3 domain of Grb2 (GST-SH3 fusion protein) (from UniProt P62993 1-58) | – | – | binds
